Measured values from paper PMC7337521.
Results are given in words; binding and its absence hold for the method and conditions named. In cells and extracts the contact can be indirect. Here binding means that the protein was enriched with, or labelled near, the bait; the list need not be complete.

B1: TIA-1 (protein, UniProt P31483 1-386)
chain: MEDEMPKTLYVGNLSRDVTEALILQLFSQIGPCKNCKMIMDTAGNDPYCFVEFHEHRHAAAALAAMNGRKIMGKEVKVNWATTPSSQKKDTSSSTVVSTQRSQDHFHVFVGDLSPEITTEDIKAAFAPFGRISDARVVKDMATGKSKGYGFVSFFNKWDAENAIQQMGGQWLGGRQIRTNWATRKPPAPKSTYESNTKQLSYDEVVNQSSPSNCTVYCGGVTSGLTEQLMRQTFSPFGQIMEIRVFPDKGYSFVRFNSHESAAHAIVSVNGTTIEGHVVKCYWGKETLDMINPVQQQNQIGYPQPYGQWGQWYGNAQQIGQYMPNGWQVPAYGMYGQAWNQQGFNQTQSSAPWMGPNYGVQPPQGQNGSMLPNQPSGYRVAGYETQ
B2: G3BP2 (protein, UniProt Q9UN86 1-482)
chain: MVMEKPSPLLVGREFVRQYYTLLNKAPEYLHRFYGRNSSYVHGGVDASGKPQEAVYGQNDIHHKVLSLNFSECHTKIRHVDAHATLSDGVVVQVMGLLSNSGQPERKFMQTFVLAPEGSVPNKFYVHNDMFRYEDEVFGDSEPELDEESEDEVEEEQEERQPSPEPVQENANSGYYEAHPVTNGIEEPLEESSHEPEPEPESETKTEELKPQVEEKNLEELEEKSTTPPPAEPVSLPQEPPKAFSWASVTSKNLPPSGTVSSSGIPPHVKAPVSQPRVEAKPEVQSQPPRVREQRPRERPGFPPRGPRPGRGDMEQNDSDNRRIIRYPDSHQLFVGNLPHDIDENELKEFFMSFGNVVELRINTKGVGGKLPNFGFVVFDDSEPVQRILIAKPIMFRGEVRLNVEEKKTRAARERETRGGGDDRRDIRRNDRGPGGPRGIVGGGMMRDRDGRGPPPRGGMAQKLGSGRGTGQMEGRFTGQRR
B3: RNH1 (protein, UniProt P13489 1-461)
chain: MSLDIQSLDIQCEELSDARWAELLPLLQQCQVVRLDDCGLTEARCKDISSALRVNPALAELNLRSNELGDVGVHCVLQGLQTPSCKIQKLSLQNCCLTGAGCGVLSSTLRTLPTLQELHLSDNLLGDAGLQLLCEGLLDPQCRLEKLQLEYCSLSAASCEPLASVLRAKPDFKELTVSNNDINEAGVRVLCQGLKDSPCQLEALKLESCGVTSDNCRDLCGIVASKASLRELALGSNKLGDVGMAELCPGLLHPSSRLRTLWIWECGITAKGCGDLCRVLRAKESLKELSLAGNELGDEGARLLCETLLEPGCQLESLWVKSCSFTAACCSHFSSVLAQNRFLLELQISNNRLEDAGVRELCQGLGQPGSVLRVLWLADCDVSDSSCSSLAATLLANHSLRELDLSNNCLGDAGILQLVESVRQPGCLLEQLVLYDIYWSEEMEDRLQALEKDKPSLRVIS
B4: DDX1 (protein, UniProt Q92499 1-740)
chain: MAAFSEMGVMPEIAQAVEEMDWLLPTDIQAESIPLILGGGDVLMAAETGSGKTGAFSIPVIQIVYETLKDQQEGKKGKTTIKTGASVLNKWQMNPYDRGSAFAIGSDGLCCQSREVKEWHGCRATKGLMKGKHYYEVSCHDQGLCRVGWSTMQASLDLGTDKFGFGFGGTGKKSHNKQFDNYGEEFTMHDTIGCYLDIDKGHVKFSKNGKDLGLAFEIPPHMKNQALFPACVLKNAELKFNFGEEEFKFPPKDGFVALSKAPDGYIVKSQHSGNAQVTQTKFLPNAPKALIVEPSRELAEQTLNNIKQFKKYIDNPKLRELLIIGGVAARDQLSVLENGVDIVVGTPGRLDDLVSTGKLNLSQVRFLVLDEADGLLSQGYSDFINRMHNQIPQVTSDGKRLQVIVCSATLHSFDVKKLSEKIMHFPTWVDLKGEDSVPDTVHHVVVPVNPKTDRLWERLGKSHIRTDDVHAKDNTRPGANSPEMWSEAIKILKGEYAVRAIKEHKMDQAIIFCRTKIDCDNLEQYFIQQGGGPDKKGHQFSCVCLHGDRKPHERKQNLERFKKGDVRFLICTDVAARGIDIHGVPYVINVTLPDEKQNYVHRIGRVGRAERMGLAISLVATEKEKVWYHVCSSRGKGCYNTRLKEDGGCTIWYNEMQLLSEIEEHLNCTISQVEPDIKVPVDEFDGKVTYGQKRAAGGGSYKGHVDILAPTVQELAALEKEAQTSFLHLGYLPNQLFRTF
B5: BANF1 (protein, UniProt O75531 1-89)
chain: MTTSQKHRDFVAEPMGEKPVGSLAGIGEVLGKKLEERGFDKAYVVLGQFLVLKKDEDLFREWLKDTCGANAKQSRDCFGCLREWCDAFL

molecular target: G3BP1-APEX fusion protein (UniProt Q13283); test: proximity labelling; G3BP1-APEX transiently expressed in PC-3 cells, vehicle or arsenite (200 uM, 2 h); biotin-tyramide 500 uM 30 min and H2O2 1 mM 1 min; biotinylated proteins pulled down with Dynabeads M-280 Streptavidin; Western blot

binding, binds:
B1
B2

molecular target: G3BP1-APEX fusion protein (UniProt Q13283); test: proximity labelling; G3BP1-APEX (heavy SILAC) against CTRL-APEX (light SILAC) in PC-3 cells, vehicle or arsenite (200 uM, 2 h); biotin tagging, streptavidin pulldown, LC-MS/MS (Orbitrap); triplicates

binding, binds:
B3
B2
B4
B5
